From patent US20250171555A1
These are yes or no findings as the source states them, for the method shown. Some binding calls cover weakened binding; strength is not graded here.

Target: T1, dog C5aR1 (dog) (UniProt P30992)
T1 sequence (looked up): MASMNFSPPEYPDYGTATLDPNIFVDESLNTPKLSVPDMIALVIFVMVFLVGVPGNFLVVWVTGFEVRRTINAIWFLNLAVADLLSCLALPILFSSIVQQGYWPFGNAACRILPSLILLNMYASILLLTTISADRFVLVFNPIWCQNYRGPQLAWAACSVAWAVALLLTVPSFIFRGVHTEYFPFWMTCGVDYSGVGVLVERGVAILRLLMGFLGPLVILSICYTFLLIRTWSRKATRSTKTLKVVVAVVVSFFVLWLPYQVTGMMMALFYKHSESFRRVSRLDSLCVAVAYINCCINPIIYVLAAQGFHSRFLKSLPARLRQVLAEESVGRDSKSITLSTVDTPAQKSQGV
Test: cell surface binding, flow cytometry, half-log titration 10^-7.5 to 10^-12 M

B1: e1711 (antibody, human IgG4 S228P, kappa, V domains shown)
VH: EVQLVESGGGLIQPGGSLRLSCAASGFTFNAYAMSWVRQAPGKGLEWVSSISTGGNTYYADSVKGRFTISRDNSKNTLYLQMNSLRAEDTAVYYCTRGYQRFSGFAYWGQGTLVTVSS
VL: EIVLTQSPATLSLSPGERATLSCRSSQSLVHSNGNTYLNWYQQKPGQAPRLLIYKVSNRLSGIPARFSGSGSGTDFTLTISSLEPEDFAVYYCSQSTHVPYTFGQGTKLEIKR
  binding: binds
